{
  "source": "patent US5138061A",
  "about": "“Thioacylating reagents” (BioChem Pharma Inc., priority 1989, dated 1992)",
  "tested_on": "immature T-cell development (de novo antigens on T lymphocytes)",
  "assay": "T cell development in nude athymic mice (thymopentin vs 4-thiothymopentin)",
  "format": "in vivo",
  "text": "The incorporation of thioamide linkages at positions on the peptide backbone which are susceptible to degradation may be performed in order to increase the peptide's resistance to enzymatic digestion. This enhanced stability may afford greater biological activities to the peptides prolonged existence. For example, thymopentin, which is merely a biologically active fragment of the polypeptide thymopoietin, may be modified to elicit this response. […] A control group of nude athymic mice was administered 20 micrograms of thymopentin per subject according to well-known assay techniques. See, e.g., O. Archer, T. Pierce, B. Papermanter, and R. Good, \"Reduced Antibody Response in Thymectomized Rabbits\", Nature, 195, 191 (1962); D. Oscaba and J. Miller, \"Evidence for a Humeral Thymus Factor Responsible for the Maturation of Immunological Faculty\", Nature, 199, 653 (1963); P. Magrit, \"T-Cell Development in Normal and Thymopentintreated Nude Mice\", J. Exp. Med., 156, 1057 (1982). […] Thus, the increased effect in potency confirms that the introduction of a sulphur atom as a replacement for the carbonyl oxygen atom of an amide bond may decrease the rate of enzymatic degradation, enhance the affinity for relevant receptors, or act to assist both phenomena.\nThis assay was performed according to the protocol established by Lau and Goldstein. See C. Lau and G. Goldstein, \"Functional Effects of Thymopentin on Cytotoxic Lymphocyte Precursor Units\", J. Immun., 124, 1861 (1980); and G. Goldstein et a., \"T cell Development in Normal and Thymopentin-treated Nude Mice\", J. Exp. Med., 156, 1057 (1982).\nThe immunomodulatory action of thymopentin and 4-thiothymopentin on immature T-cell development by the expression of de novo antigens on T lymphocytes after daily subcutaneous injections for two weeks in four week old nude athymic mice was measured. Following the final injection, the splenocytes were prepared and radio-labelled to determine the percentage of total cells bearing the radio labeled marker.",
  "note": "“And” between values parts separate entries of the source, which are not always exact repeats. Equal values may be shown once. Not every detail of the peptide structures is certain; ends, links or a residue may be inferred.",
  "data": [
    {"molecule": "CC(C)[C@H](NC(=O)[C@H](CC(=O)O)NC(=O)[C@H](CCCCN)NC(=O)[C@@H](N)CCCNC(=N)N)C(=S)N[C@@H](Cc1ccc(O)cc1)C(=O)O", "note": "[4-thiothymopentin, 4-Thiothymopentin]", "values": [
      {"measurement": "increase of cells bearing radio-labelled T lymphocyte markers over control animals administered thymopentin", "setting": "daily subcutaneous injections for two weeks, four week old nude athymic mice, splenocytes, two distinct sets of experiments", "value": "128% and 227%"},
      {"measurement": "mean increase for the maturation of T cells and related immune responses", "setting": "nude athymic mice, 20 micrograms per subject", "value": 128, "unit": "%"},
      {"measurement": "increase in biological activity", "setting": "versus thymopentin, same dosage and assay conditions", "value": "three-fold"}
    ]}
  ]
}
